Source: doi:10.1101/2025.10.31.685692
Results are given in words; binding and its absence hold for the method and conditions named. In cells and extracts the contact can be indirect. A yes stands for co-enrichment or nearness to the bait. Other partners may have been found. Where a sequence is shown, tags or fusion partners need not be part of it.

Target: T1, FLAG-HA-tagged ZMYND11 (endogenous, Zmynd11-FH knock-in mouse) (mouse (endogenous in brain tissue)) (UniProt Q8R5C8)
T1 sequence: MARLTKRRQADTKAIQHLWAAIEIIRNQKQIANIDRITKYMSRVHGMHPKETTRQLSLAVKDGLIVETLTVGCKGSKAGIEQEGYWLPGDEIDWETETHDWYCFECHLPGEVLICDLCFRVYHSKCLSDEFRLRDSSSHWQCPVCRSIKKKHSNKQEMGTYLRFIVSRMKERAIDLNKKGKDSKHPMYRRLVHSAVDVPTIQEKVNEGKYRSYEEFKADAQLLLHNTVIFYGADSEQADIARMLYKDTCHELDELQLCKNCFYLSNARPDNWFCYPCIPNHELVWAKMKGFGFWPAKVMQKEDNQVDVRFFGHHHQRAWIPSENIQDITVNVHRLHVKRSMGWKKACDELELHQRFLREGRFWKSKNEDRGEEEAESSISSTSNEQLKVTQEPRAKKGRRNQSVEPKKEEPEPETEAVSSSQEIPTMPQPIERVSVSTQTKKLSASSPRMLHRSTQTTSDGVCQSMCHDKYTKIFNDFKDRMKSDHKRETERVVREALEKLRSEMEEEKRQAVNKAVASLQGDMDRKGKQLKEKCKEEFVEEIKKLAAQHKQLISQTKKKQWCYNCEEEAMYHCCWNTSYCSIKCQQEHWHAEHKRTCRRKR
Experiment: affinity purification with mass spectrometry; anti-FLAG (anti-DYKDDDK magnetic agarose) immunoprecipitation of endogenous FLAG-HA-ZMYND11 from nuclear lysates (420 mM NaCl extract plus MNase-digested chromatin, diluted to 150 mM NaCl) of Zmynd11-FH whole brain; washes NE1 + 250 mM NaCl; elution with 3XFLAG peptide; LC/MS-MS; wild-type littermates as control

- binding: binds
B1: ZBTB38, mouse brain (protein, UniProt Q3LR78 1-1197)
chain: MTVMSLSRDLKDDFHSDTVLSILNEQRIRGILCDVTIIVEDTKFKAHSNVLAASSLYFKNIFWSHTICISSHVLELDDLKAEVFTEILNYIYSSTVVVKRQETVTDLAAAGKKLGISFLEDLSDRNFSNSPGPYVVCITEKGVVKEEKNEKRHEEPAVTNGPRITNAFSIIETENSNNMFSPLDLRASFKKVSDSMRTASLCQERASVCHEVEPVRTLAEHSYAVSSITEAYRSQPPREQDSSSSAKTGKETGDALATKAKPCRKPKPQTQDSDSTTENMPLSLVTCPEVNQERSPQPAPDLSHSEPPSNEGDIHFPREDENQPSDAPGPGAAEVPPLVYNCSCCSKSFDSSTLLSAHMQLHKPTQEPFVCKYCNKQFTTLNRLDRHEQICMRSSHVPIPGGNPPFLENYPTIGQDGTSFRSPESLGPENRIGELSSAGSALSDADHMVKFVNGQMLYSCIVCKRSYVTLSSLRRHANVHSWRRTYPCHYCNKVFALAEYRTRHEIWHTGERRYQCIFCLETFMTYYILKNHQKSFHAIDHRLSINKKTANGGLKPTVYPYKLYRLLPMRCKRAPYKSYRNSSYVSAQGSSQRGESAPDTFIVPNLQSSEMPTLDFQDGRNTLPSSPAVPVETPSRQGAPTSARVKNAEGIKWRKQAVKTNLVDNFDSTEVSVSSTGNTVSATLQTEPACVSSVGKGSEHSASVISYSGSVPSVIVHSSQFSSVIKHSNTIASLTNSNHKSPSQPVVSPSLIKDSKPETDKASKPASRPKSIKEKKKTAPSNRGEITEEAKYIADHGGSSGKTTNAEETSKIETYIAKPALPGTSTNSNVAPLCQITVKIGNEAIVKRHILGSKLFYKRGRKPKYQMQEETLPRENDPETPGDSPLGLCQAECVEMSEAFDEVSDQDSTDKPWRPYYNYKPKKKSKQLRKMRKVKWRKERRSRSPVGRCRYPAELDRAEVKLPPDKAFEEEEEEEENKEMPKLQCELCDGCPDGAAGAGAEGKPHQHLTSKPYICELCAKQFQSSSTLKMHMRCHTGEKPYQCKTCGRCFSVQGNLQKHERIHLGVKEFICQYCNKAFTLNETLKIHERIHTGEKRYHCQFCFQGFLYLSTKRNHERRHIREHDGKGFACFQCPKICKTAAALRMHQKKHLYKTLPKQEETGDTCHENADLLESQLCTDSEDSEQKDDIKAFAENVL
